Results published in paper PMC7287671, “Anticancer Ruthenium Complexes with HDAC Isoform Selectivity” (Molecules, 2020).

Experiments:
[1] = tested on: MCF7 human breast adenocarcinoma cell line; experiment: Cell viability assay (ChemoMetec Via1-Cassette); type: cell-based; settings: MCF7, 96 h, triplicate
Protocol: viable cells. The experiments were carried out in triplicate.

[2] = tested on: H460 non-small lung carcinoma cells; set-up: method as in PMID 31964062; settings: cited from earlier work

## O=C(CCCCCCC(=O)Nc1ccccc1)NO [SAHA, suberanilohydroxamic acid, reference compound]
[1]
  EC50: ~1.5 µM
[2]
  EC50: 1.5 ± 0.4 µM
